Data set [1] relates to T1, GL-8.3.1 (SBS design) (artificial).
T1 sequence: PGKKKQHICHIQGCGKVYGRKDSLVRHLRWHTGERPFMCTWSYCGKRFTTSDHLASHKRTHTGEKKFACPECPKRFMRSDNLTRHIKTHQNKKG
Put plainly: binding assay. The note with it: exemplary ZFP database entry; method not given.

Sequences of proteins named here, by UniProt entry; tags and fusion partners are left off. Residues count along the entry.
UniProt P08047, 620-713: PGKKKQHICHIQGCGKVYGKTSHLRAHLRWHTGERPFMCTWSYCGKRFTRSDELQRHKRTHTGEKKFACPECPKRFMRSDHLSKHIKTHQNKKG

A further data set concerns the target SP1 (UniProt P08047). As to the kind of experiment: binding assay. The note with it: exemplary ZFP database entry; method not given.

For at least one entry, the source does not settle the construct or the ends of the probe. For some assays here: Tags and fusion partners may be left off the protein sequences shown.

What is called Kd is the free concentration of one partner at which half of the binding sites on the other are occupied at equilibrium, for simple one-to-one binding. Read a low Kd as tighter binding. “GAGTGTGTG (double strand) [GL-8.3.1 target site]”: the Kd in data set [1] was 32 nM.

In turn, “GGGGCGGGG (double strand) [SP1 target site]” displayed a Kd with SP1 of 25 nM.

Source of the values: patent publication US6794136.
